According to the supplement of paper PMC10849652:
The list shows a part of the results.

The chains behind the UniProt entries cited, without tags or fusion partners. Where a name states a change or a piece, a line headed by the entry shows the natural chain unless it says otherwise.
UniProt Q16864, whole entry, looked up: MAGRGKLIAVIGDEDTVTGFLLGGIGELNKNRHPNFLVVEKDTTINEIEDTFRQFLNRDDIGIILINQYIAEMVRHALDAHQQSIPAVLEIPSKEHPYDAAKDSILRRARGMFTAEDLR
UniProt Q9HD20: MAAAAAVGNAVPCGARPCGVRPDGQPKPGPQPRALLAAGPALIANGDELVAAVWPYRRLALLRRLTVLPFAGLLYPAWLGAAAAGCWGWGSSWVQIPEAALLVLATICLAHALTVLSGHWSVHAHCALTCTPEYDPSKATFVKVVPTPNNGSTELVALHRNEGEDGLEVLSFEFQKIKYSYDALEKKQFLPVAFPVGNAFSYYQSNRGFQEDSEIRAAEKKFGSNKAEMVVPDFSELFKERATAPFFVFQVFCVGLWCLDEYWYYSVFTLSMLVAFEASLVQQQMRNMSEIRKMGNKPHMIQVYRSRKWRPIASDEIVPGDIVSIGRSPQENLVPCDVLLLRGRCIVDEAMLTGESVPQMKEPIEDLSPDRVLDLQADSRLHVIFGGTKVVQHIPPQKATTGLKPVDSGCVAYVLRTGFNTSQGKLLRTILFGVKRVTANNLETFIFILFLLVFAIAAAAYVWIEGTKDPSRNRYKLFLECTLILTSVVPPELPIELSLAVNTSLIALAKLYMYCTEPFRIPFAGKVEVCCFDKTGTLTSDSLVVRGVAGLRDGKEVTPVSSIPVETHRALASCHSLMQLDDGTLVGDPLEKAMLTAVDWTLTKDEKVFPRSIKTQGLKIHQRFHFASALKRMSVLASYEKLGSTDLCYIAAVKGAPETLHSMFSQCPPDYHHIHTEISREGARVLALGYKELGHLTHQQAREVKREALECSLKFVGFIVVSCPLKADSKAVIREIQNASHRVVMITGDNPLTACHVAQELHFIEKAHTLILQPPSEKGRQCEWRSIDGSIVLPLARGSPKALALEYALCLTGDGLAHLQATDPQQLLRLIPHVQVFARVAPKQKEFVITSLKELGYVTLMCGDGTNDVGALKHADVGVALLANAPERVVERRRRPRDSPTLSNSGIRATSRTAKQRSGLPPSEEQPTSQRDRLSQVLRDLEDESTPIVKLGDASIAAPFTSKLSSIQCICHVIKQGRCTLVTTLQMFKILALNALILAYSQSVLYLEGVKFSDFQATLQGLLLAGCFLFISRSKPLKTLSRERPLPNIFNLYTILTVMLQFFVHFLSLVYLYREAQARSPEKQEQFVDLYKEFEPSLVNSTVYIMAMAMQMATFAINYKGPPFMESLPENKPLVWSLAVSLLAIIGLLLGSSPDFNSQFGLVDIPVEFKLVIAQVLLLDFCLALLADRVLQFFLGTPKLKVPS
UniProt Q13315: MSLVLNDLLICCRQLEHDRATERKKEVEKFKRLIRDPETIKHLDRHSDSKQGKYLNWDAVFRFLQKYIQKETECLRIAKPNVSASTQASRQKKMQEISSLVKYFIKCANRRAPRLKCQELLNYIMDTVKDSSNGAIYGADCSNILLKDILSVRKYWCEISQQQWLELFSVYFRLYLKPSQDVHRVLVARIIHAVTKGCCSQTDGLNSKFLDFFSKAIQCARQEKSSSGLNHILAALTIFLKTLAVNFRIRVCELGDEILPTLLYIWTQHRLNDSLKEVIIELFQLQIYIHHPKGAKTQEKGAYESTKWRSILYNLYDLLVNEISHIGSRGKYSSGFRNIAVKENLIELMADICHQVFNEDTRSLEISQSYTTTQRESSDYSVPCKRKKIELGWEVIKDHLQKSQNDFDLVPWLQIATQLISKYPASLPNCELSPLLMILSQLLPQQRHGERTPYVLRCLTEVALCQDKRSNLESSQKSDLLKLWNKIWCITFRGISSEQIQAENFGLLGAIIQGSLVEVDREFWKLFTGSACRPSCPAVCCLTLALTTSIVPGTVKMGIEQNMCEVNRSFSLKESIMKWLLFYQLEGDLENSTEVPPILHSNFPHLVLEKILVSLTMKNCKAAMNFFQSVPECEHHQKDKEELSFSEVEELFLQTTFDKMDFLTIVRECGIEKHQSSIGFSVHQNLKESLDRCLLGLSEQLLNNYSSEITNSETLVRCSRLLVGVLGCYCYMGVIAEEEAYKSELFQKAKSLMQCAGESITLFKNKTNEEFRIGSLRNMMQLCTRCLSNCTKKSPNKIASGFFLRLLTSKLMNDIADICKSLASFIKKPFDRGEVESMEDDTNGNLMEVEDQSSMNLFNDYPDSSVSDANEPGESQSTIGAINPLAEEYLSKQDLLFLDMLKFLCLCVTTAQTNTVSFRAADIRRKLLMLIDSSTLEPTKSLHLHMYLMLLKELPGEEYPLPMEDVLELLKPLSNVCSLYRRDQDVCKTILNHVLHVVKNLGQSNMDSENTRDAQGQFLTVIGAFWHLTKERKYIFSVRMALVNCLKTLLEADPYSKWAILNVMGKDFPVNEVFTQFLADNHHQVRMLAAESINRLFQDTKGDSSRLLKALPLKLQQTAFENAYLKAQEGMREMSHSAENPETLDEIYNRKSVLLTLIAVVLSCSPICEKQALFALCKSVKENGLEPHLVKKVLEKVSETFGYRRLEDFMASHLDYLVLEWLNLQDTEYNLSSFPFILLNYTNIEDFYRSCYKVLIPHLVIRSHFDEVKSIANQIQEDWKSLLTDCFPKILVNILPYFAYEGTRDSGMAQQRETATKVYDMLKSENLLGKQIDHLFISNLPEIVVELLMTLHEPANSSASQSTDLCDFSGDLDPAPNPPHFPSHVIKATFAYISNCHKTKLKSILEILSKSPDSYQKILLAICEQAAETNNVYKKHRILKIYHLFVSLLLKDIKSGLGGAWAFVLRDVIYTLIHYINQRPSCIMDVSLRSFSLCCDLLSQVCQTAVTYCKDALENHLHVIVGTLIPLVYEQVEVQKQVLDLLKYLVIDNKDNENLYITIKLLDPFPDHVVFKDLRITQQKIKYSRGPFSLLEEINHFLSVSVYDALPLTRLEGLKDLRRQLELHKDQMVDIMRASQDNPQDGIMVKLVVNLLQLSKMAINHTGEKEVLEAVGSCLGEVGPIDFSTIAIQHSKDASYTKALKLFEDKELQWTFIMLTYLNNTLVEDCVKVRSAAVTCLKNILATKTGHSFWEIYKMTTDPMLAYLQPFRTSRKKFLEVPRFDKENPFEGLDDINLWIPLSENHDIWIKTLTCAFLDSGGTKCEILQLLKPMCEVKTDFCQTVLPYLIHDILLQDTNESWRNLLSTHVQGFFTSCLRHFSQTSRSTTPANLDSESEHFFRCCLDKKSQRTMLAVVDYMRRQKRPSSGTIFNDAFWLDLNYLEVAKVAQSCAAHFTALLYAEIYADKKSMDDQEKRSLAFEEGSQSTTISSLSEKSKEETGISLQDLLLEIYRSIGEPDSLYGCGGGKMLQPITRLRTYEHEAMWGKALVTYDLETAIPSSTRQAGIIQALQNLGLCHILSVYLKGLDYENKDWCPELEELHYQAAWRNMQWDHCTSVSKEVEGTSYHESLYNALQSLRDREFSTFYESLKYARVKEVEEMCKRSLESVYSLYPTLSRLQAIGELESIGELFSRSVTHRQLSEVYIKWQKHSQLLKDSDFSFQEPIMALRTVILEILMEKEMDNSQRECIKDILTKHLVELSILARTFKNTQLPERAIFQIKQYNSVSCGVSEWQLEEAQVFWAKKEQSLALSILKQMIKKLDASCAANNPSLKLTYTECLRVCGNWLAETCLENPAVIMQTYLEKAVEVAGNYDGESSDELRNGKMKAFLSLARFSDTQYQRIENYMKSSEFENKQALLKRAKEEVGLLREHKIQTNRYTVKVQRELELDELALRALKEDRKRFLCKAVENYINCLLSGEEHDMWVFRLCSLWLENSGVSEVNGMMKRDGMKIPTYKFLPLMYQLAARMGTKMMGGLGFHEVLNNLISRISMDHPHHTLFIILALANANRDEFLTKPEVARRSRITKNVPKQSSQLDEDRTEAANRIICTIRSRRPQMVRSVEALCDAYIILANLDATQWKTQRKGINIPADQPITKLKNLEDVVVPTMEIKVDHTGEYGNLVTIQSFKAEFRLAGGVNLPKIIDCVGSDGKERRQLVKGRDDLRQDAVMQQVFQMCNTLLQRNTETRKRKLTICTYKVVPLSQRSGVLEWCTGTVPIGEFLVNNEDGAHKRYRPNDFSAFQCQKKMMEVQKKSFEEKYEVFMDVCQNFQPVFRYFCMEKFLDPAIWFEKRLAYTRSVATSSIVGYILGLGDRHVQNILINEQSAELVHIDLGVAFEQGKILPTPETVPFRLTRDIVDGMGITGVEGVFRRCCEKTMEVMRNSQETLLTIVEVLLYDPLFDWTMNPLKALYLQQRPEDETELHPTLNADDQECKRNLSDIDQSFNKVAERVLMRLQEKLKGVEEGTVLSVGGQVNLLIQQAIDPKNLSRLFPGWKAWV
UniProt L0R819, whole entry, looked up: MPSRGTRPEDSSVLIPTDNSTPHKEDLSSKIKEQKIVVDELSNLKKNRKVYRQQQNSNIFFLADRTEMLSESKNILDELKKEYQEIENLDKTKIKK
UniProt Q9Y2Y0: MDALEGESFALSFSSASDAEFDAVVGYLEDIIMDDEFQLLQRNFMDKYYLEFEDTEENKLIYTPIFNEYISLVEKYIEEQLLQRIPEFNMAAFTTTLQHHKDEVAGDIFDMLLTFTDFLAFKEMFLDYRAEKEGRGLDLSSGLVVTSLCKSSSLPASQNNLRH
UniProt Q8NBU5: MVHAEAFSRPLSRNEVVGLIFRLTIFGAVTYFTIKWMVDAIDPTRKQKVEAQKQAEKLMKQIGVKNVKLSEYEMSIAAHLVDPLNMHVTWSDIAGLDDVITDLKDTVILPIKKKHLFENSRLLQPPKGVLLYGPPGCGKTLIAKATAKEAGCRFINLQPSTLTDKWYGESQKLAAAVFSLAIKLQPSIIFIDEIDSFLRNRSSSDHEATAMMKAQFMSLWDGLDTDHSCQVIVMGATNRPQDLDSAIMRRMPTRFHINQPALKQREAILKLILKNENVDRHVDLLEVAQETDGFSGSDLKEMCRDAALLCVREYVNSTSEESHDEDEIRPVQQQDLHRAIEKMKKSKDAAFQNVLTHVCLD
UniProt P61421, whole entry, looked up: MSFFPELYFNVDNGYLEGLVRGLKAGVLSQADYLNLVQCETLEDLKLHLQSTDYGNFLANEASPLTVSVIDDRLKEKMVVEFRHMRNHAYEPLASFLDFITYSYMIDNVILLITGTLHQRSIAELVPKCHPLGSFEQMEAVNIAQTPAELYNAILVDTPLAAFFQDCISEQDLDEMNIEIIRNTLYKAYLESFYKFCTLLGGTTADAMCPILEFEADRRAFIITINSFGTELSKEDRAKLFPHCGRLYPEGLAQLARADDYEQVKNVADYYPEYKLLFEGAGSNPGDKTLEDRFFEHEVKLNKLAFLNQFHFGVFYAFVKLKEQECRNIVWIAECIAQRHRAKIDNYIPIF
UniProt P27540, whole entry, looked up: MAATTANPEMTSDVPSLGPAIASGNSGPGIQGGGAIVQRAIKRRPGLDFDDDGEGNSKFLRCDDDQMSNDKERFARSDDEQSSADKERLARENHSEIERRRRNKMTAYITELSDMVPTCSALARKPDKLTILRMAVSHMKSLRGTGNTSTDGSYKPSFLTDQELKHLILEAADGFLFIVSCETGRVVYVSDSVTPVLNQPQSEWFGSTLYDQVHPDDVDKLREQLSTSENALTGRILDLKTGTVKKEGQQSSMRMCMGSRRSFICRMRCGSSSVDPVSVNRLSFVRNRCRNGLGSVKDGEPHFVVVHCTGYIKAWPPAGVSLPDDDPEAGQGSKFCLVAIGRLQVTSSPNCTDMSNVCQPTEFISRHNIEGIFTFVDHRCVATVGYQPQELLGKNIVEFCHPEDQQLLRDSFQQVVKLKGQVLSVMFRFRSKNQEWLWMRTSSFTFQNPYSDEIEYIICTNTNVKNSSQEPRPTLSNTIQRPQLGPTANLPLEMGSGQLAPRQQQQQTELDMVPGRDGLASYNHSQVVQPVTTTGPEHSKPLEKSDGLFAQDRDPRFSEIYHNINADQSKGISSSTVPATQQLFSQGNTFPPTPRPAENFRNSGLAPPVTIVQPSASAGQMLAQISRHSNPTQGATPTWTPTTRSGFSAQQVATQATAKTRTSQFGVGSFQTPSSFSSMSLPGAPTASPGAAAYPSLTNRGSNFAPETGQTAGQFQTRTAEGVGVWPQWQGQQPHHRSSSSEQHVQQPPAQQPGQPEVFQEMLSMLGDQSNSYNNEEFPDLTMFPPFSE
UniProt Q3SXY8: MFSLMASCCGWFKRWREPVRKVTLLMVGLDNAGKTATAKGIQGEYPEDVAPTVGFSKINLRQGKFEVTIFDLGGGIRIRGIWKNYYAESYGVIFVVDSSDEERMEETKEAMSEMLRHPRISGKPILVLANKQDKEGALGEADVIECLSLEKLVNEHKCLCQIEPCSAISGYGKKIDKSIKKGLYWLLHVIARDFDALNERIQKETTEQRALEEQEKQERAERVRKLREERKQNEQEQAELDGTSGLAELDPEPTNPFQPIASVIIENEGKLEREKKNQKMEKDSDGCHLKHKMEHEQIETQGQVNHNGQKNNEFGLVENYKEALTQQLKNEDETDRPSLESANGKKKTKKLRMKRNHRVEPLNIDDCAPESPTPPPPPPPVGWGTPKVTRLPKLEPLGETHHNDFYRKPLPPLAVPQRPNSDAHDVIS

Tests used:
Experiment in all cases: log2 fold change, soluble protein after heating vs DMSO (PISA); higher = thermal stabilisation; K562 cells, 10 uM, 30 min; active = over 0.2 and 3.5 SD of the protein, either way, in both replicates (recomputed)
[1] = compound: NC(=O)Nc1cc(-c2cccc(F)c2)sc1C(=O)N[C@H]1CCCNC1
In short: (§1)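 K562 cells (2×10^6 cells/mL) were treated with 10 μM compound for 30 min, and aliquots were heated for 3 min over 48°C-58°C. Pooled aliquots were extracted in PBS with 0.5% NP-40 at 4°C, and the supernatant after 21,000xg for 90 min was measured by TMTpro 16plex LC-MS/MS with channel sums equalised. Reported thermal stability, relative to control samples and from duplicates, is a log2 fold change.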

[2] = compound: NC(=O)c1cnc(N[C@@H]2CCCC[C@@H]2N)nc1Nc1cccc(-n2nccn2)c1
In short: as §1

[3] = compound: NC1(c2ccc(-c3nc4ccn5c(=O)[nH]nc5c4cc3-c3ccccc3)cc2)CCC1
In short: as §1

[4] = compound: NCC(=O)Nc1ccc(-n2nc(C(F)(F)F)cc2-c2ccc3c(ccc4ccccc43)c2)cc1
In short: as §1

entinostat = compound: Nc1ccccc1NC(=O)c1ccc(CNC(=O)OCc2cccnc2)cc1 [entinostat]
In short: as §1

vorinostat = compound: O=C(CCCCCCC(=O)Nc1ccccc1)NO [vorinostat]
In short: as §1

citarinostat = compound: O=C(CCCCCCNC(=O)c1cnc(N(c2ccccc2)c2ccccc2Cl)nc1)NO [citarinostat]
In short: as §1

silmitasertib = compound: O=C(O)c1ccc2c(c1)nc(Nc1cccc(Cl)c1)c1ccncc12 [silmitasertib]
In short: as §1

[5] = compound: O=C1NC(=O)C(c2cnc3ccccn23)=C1c1cn2c3c(cc(F)cc13)CN(C(=O)N1CCCCC1)CC2
In short: as §1

[6] = compound: c1cc(OCCN2CCCCC2)cc(-c2n[nH]c3ccc(-c4nnc[nH]4)cc23)c1
In short: as §1

Row | Target | log2 fold change [1] | log2 fold change [2] | log2 fold change [3] | log2 fold change [4] | log2 fold change (entinostat) | log2 fold change (vorinostat) | log2 fold change (citarinostat) | log2 fold change (silmitasertib) | log2 fold change [5] | log2 fold change [6]
1 | ATP6V1F isoform 2 (UniProt Q16864) | inactive: 0.175 | inactive: 0.221 | inactive: -0.078 | inactive: 0.143 | inactive: 0.087 | inactive: -0.092 | inactive: 0.026 | inactive: -0.042 | inactive: -0.073 | inactive: 0.026
2 | ATAD3A isoform 2 (UniProt Q9NVI7) | inactive: 0.011 | inactive: -0.088 | inactive: -0.128 | inactive: -0.088 | inactive: 0.053 | inactive: 0.123 | inactive: 0.076 | inactive: 0.051 | inactive: 0.12 | inactive: -0.127
3 | ATP6AP1 (UniProt Q15904) | inactive: -0.033 | inactive: -0.208 | inactive: -0.149 | inactive: -0.04 | inactive: 0.025 | inactive: 0.063 | inactive: 0.035 | inactive: 0.043 | inactive: -0.005 | inactive: -0.087
4 | ATG9A (UniProt Q7Z3C6) | inactive: 0.019 | inactive: 0 | inactive: -0.262 | inactive: 0.038 | inactive: 0.008 | inactive: 0.061 | inactive: 0.059 | inactive: -0.023 | inactive: 0.019 | inactive: -0.013
5 | ATP11C (UniProt Q8NB49) | inactive: 0.006 | inactive: 0.036 | inactive: -0.039 | inactive: -0.026 | inactive: -0.038 | inactive: -0.031 | inactive: 0.017 | inactive: 0.042 | inactive: -0.019 | inactive: -0.003
6 | ASPM (UniProt Q8IZT6) | inactive: -0.06 | inactive: -0.007 | inactive: -0.06 | inactive: -0.036 | inactive: -0.039 | inactive: -0.107 | inactive: -0.016 | inactive: -0.102 | inactive: 0.127 | inactive: 0.014
7 | ATP13A1 (UniProt Q9HD20) | inactive: -0.03 | inactive: -0.02 | inactive: -0.033 | inactive: -0.065 | inactive: 0.011 | inactive: -0.009 | inactive: 0.006 | inactive: 0.008 | inactive: -0.058 | inactive: -0.023
8 | ARL8B (UniProt Q9NVJ2) | inactive: -0.011 | inactive: -0.015 | inactive: -0.165 | inactive: -0.018 | inactive: -0.023 | inactive: -0.008 | inactive: 0.055 | inactive: -0.008 | inactive: -0.008 | inactive: -0.026
9 | ATP2C1 isoform 7 (UniProt P98194) | inactive: 0.07 | inactive: -0.005 | inactive: -0.112 | inactive: -0.051 | inactive: 0.037 | inactive: -0.058 | inactive: -0.026 | inactive: 0.049 | inactive: 0.136 | inactive: -0.097
10 | ATP6V0A1 isoform 3 (UniProt Q93050) | inactive: -0.051 | inactive: -0.207 | inactive: -0.184 | inactive: 0.008 | inactive: 0.083 | inactive: 0.062 | inactive: 0.109 | inactive: 0.102 | inactive: 0.019 | inactive: -0.112
11 | ARL6IP4 (UniProt Q66PJ3) | inactive: -0.035 | inactive: 0.221 | inactive: 0.025 | inactive: 0.013 | inactive: -0.04 | inactive: -0.011 | inactive: 0.04 | inactive: -0.017 | inactive: -0.007 | inactive: -0.017
12 | ATM (UniProt Q13315) | inactive: -0.035 | inactive: -0.076 | inactive: -0.126 | inactive: -0.034 | inactive: -0.01 | inactive: 0.042 | inactive: -0.042 | inactive: -0.005 | inactive: -0.017 | inactive: -0.023
13 | ARMT1 (UniProt Q9H993) | inactive: -0.134 | inactive: -0.114 | inactive: -0.187 | inactive: -0.077 | inactive: 0.188 | inactive: 0.139 | inactive: 0.118 | inactive: 0.085 | inactive: 0.121 | inactive: -0.094
14 | ASDURF (UniProt L0R819) | inactive: 0.004 | inactive: -0.006 | inactive: 0.033 | inactive: 0.047 | inactive: -0.047 | inactive: -0.059 | inactive: 0.009 | inactive: 0 | inactive: 0.087 | inactive: -0.14
15 | ATG7 (UniProt O95352) | inactive: 0.002 | inactive: 0.018 | inactive: -0.11 | inactive: -0.021 | inactive: 0.009 | inactive: 0.03 | inactive: 0.061 | inactive: 0.003 | inactive: -0.05 | inactive: -0.042
16 | ARL2BP (UniProt Q9Y2Y0) | inactive: -0.056 | inactive: -0.108 | inactive: -0.129 | inactive: -0.088 | inactive: -0.057 | inactive: 0.132 | inactive: 0.006 | inactive: -0.02 | inactive: 0.108 | inactive: 0.046
17 | ATG4B isoform 2 (UniProt Q9Y4P1) | inactive: 0.08 | inactive: -0.104 | inactive: -0.401 | inactive: -0.151 | inactive: 0.154 | inactive: 0.268 | inactive: 0.005 | inactive: 0.003 | inactive: -0.093 | inactive: -0.023
18 | ATAD1 (UniProt Q8NBU5) | inactive: -0.036 | inactive: -0.056 | inactive: -0.015 | inactive: -0.009 | inactive: 0.038 | inactive: 0.012 | inactive: 0.032 | inactive: 0.012 | inactive: 0.197 | inactive: -0.053
19 | ATP9B (UniProt O43861) | active: -0.58 | inactive: -0.028 | inactive: 0.052 | inactive: -0.029 | inactive: -0.24 | inactive: -0.044 | inactive: 0.135 | inactive: 0.071 | inactive: 0.029 | inactive: -0.048
20 | ATP1A3 isoform 3 (UniProt P13637) | inactive: -0.049 | inactive: 0.106 | inactive: 0.052 | inactive: 0.003 | inactive: -0.039 | inactive: -0.032 | inactive: 0.011 | inactive: 0.002 | inactive: 0.012 | inactive: -0.04
21 | ASPSCR1 isoform 2 (UniProt Q9BZE9) | inactive: -0.052 | inactive: -0.046 | inactive: -0.054 | inactive: -0.006 | inactive: -0.034 | inactive: -0.001 | inactive: -0.006 | inactive: 0.103 | inactive: -0.083 | inactive: -0.013
22 | ATP6V0D1 (UniProt P61421) | inactive: 0.016 | inactive: -0.042 | inactive: -0.208 | inactive: -0.057 | inactive: 0.101 | inactive: -0.001 | inactive: 0.044 | inactive: 0.057 | inactive: -0.006 | inactive: -0.141
23 | ATIC (UniProt P31939) | inactive: -0.023 | inactive: 0.001 | inactive: 0.03 | inactive: -0.009 | inactive: -0.019 | inactive: -0.026 | inactive: 0.01 | inactive: -0.059 | inactive: -0.066 | inactive: 0.013
24 | ARPC1A (UniProt Q92747) | inactive: 0.031 | inactive: -0.021 | inactive: -0.012 | inactive: -0.005 | inactive: -0.03 | inactive: -0.079 | inactive: 0.015 | inactive: 0.081 | inactive: 0.064 | inactive: 0.018
25 | ATP5PF isoform 2 (UniProt P18859) | inactive: 0.064 | inactive: -0.001 | inactive: 0.015 | inactive: 0.044 | inactive: 0.056 | inactive: -0.173 | inactive: -0.073 | inactive: -0.019 | inactive: -0.05 | inactive: 0
26 | ASNA1 (UniProt O43681) | inactive: 0.045 | inactive: 0 | inactive: -0.023 | inactive: 0.035 | inactive: 0.003 | inactive: -0.035 | inactive: 0.038 | inactive: 0.03 | inactive: 0.024 | inactive: -0.024
27 | ARMCX3 (UniProt Q9UH62) | inactive: -0.134 | inactive: 0 | inactive: -0.153 | inactive: -0.153 | inactive: 0.174 | inactive: 0.063 | inactive: 0.003 | inactive: -0.01 | inactive: 0.076 | inactive: -0.052
28 | ARNT (UniProt P27540) | inactive: -0.059 | inactive: 0.001 | inactive: -0.058 | inactive: 0.105 | inactive: -0.056 | inactive: -0.027 | inactive: 0.054 | inactive: 0.024 | inactive: -0.291 | inactive: 0.002
29 | ARL13B (UniProt Q3SXY8) | inactive: -0.186 | inactive: 0.046 | inactive: -0.068 | inactive: -0.049 | inactive: 0.015 | inactive: -0.028 | inactive: -0.033 | inactive: 0.139 | inactive: -0.127 | inactive: -0.102

Single entries from above.
log2 fold change (vorinostat), ARMT1 (UniProt Q9H993) reads inactive: 0.139
log2 fold change [1], ARNT (UniProt P27540) reads inactive: -0.059

Laid out differently: results already given.
Row	Target	log2 fold change [1]	log2 fold change [2]	log2 fold change [3]	log2 fold change [4]	log2 fold change (entinostat)	log2 fold change (vorinostat)	log2 fold change (citarinostat)	log2 fold change (silmitasertib)	log2 fold change [5]	log2 fold change [6]
9	ATP2C1 isoform 7 (UniProt P98194)	inactive: 0.07	inactive: -0.005	inactive: -0.112	inactive: -0.051	inactive: 0.037	inactive: -0.058	inactive: -0.026	inactive: 0.049	inactive: 0.136	inactive: -0.097
10	ATP6V0A1 isoform 3 (UniProt Q93050)	inactive: -0.051	inactive: -0.207	inactive: -0.184	inactive: 0.008	inactive: 0.083	inactive: 0.062	inactive: 0.109	inactive: 0.102	inactive: 0.019	inactive: -0.112
